# From PMC10769875
# The chains behind the UniProt entries cited, without tags or fusion partners. Where a name states a change or a piece, a line headed by the entry shows the natural chain unless it says otherwise.
# UniProt Q79NI3: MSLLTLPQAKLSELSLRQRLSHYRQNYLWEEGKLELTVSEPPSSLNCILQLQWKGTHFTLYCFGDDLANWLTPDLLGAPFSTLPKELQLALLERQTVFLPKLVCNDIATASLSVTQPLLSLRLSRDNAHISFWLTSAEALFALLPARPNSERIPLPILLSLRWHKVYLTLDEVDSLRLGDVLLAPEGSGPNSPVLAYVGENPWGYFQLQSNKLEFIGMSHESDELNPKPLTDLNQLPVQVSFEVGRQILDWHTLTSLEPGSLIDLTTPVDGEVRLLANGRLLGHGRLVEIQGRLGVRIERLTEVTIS
# Results are given in words; binding and its absence hold for the method and conditions named. In cells and extracts the contact can be indirect. Some entries that bind do so weakly or less than the wild type.
# Target: SctQ-Flag (Y. enterocolitica) (UniProt Q79NI3)
# Test: pull-down
substance,measurement,value
SctQC (from UniProt Q79NI3 218-307) (domain or fragment),binding,binds
